Laboratory results taken from article PMC10023680.
No constants are given. Whether binding was seen depends on the method and setting. Some results given as binding are weak or reduced against the parent protein; the word gives no strength.

Protein sequences, listed by entry. Tags and fused reporters are not part of them. Residues count along the entry.
UniProt Q92556, residues 1-113: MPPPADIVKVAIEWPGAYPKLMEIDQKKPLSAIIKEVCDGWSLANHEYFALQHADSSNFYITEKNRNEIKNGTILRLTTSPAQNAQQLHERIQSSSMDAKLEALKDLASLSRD
UniProt P60953, residues 1-178: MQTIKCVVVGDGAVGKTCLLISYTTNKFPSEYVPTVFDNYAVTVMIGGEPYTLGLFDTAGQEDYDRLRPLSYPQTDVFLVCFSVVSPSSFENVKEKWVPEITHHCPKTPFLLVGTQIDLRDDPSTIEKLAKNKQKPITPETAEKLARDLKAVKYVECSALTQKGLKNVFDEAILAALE

Biological target: GST-tagged ELMO1-RBD (residues 1-113), wild-type (human) (UniProt Q92556)
Assay: SPR; Biacore T200; GST-ELMO1-RBD (1-113, wild-type or mutants) captured on CM5 chip with GST Capture Kit; GTPγS-bound RhoG injected at 2.2-35.5 μM (Rac1 and Cdc42 measured similarly); 10 mM HEPES pH 7.5, 150 mM NaCl, 1 mM MgCl2, 0.005% P-20; steady-state affinity analysis; both purified

Cdc42 (residues 1-178) (from UniProt P60953 1-178) (domain or fragment)
binding: binds weakly
